Percent effect of library compounds

Chains of the proteins cited; added tags and fusions are not shown. Residues count along the entry.
UniProt P9WFT3, whole entry: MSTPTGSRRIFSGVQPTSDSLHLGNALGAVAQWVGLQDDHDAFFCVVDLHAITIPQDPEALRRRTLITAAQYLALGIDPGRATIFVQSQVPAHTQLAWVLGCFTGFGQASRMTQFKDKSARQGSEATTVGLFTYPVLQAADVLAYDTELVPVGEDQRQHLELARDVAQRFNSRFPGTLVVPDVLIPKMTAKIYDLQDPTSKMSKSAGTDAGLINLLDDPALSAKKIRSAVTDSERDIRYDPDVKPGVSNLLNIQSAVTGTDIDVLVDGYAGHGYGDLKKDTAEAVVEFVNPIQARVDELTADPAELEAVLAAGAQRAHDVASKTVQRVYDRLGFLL
UniProt P9WPC5, whole entry: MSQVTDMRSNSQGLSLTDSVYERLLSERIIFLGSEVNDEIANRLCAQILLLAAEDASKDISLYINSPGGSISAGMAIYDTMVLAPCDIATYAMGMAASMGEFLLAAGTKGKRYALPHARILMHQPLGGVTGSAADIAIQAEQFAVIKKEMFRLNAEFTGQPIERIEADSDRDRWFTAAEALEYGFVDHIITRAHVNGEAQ
UniProt P9WPC3, whole entry partner: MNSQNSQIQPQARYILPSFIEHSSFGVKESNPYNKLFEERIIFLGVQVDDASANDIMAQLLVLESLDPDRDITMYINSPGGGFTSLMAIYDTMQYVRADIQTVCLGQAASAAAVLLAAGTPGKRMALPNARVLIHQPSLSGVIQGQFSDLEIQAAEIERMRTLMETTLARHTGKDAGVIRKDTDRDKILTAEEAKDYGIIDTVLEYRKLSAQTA
UniProt Q8IDJ8, 1-583: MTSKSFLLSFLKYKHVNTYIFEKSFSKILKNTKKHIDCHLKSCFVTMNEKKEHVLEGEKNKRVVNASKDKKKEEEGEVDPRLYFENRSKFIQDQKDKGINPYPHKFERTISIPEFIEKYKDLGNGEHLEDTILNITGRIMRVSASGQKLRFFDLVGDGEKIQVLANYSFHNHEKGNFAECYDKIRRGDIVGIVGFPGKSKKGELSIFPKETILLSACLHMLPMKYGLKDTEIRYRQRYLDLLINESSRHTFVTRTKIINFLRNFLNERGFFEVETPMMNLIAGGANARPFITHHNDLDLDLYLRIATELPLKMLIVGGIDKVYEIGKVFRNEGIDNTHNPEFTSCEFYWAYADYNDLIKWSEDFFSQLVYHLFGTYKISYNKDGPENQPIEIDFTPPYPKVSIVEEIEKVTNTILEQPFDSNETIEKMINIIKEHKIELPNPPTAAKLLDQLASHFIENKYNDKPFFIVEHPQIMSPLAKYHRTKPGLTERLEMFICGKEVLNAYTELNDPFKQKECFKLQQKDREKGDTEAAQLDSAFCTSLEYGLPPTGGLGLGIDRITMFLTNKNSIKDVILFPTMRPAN
UniProt P9WNZ1, whole entry: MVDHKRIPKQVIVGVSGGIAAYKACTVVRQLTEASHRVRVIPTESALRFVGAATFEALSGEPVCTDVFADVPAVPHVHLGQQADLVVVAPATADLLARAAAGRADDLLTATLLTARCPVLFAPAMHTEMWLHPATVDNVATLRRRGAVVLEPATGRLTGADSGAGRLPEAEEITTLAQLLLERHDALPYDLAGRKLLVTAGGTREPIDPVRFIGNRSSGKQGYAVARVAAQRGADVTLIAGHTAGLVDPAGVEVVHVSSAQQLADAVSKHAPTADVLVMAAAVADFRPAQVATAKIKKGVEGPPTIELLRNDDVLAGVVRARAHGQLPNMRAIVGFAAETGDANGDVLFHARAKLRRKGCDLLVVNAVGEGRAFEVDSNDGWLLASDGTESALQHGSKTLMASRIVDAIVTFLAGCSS

MtTrpRS: 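Enzyme assay of tryptophanyl-tRNA synthetase; the read-out is not stated. Target: Tryptophan-tRNA ligase, Mycobacterium tuberculosis (UniProt P9WFT3). Tested at 10 µM. Direction is not recorded; retested compounds ran higher, which suggests that high means inhibition. About 65,000 compounds were tested under these conditions; 0.098% (about 64) showed 50% or more at least once.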
ClpP1P2: 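Protease assay of ClpP1P2, read by the AMC dye that it sets free. Target: ClpP1P2, Mycobacterium tuberculosis (UniProt P9WPC5 and UniProt P9WPC3). Tested at 50 µM. Higher reads as stronger inhibition, judged from the few compounds that gave an IC50. Most other retested compounds had strongly negative values. Of about 69,000 compounds tested this way, about 10 (0.015%) reached 50% or more in at least one test.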
Leishmania in macrophages: 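Cell assay of Leishmania donovani living inside macrophages; the read-out is not stated. Tested at 30 µM. Higher reads as stronger inhibition (inferred: compounds with an IC50 in retests scored well above the rest). About 69,000 compounds were tested under these conditions; 1.5% (about 1,000) showed 50% or more at least once.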
PfKRS1: 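Lysine-tRNA ligase, Plasmodium falciparum 3D7 (UniProt Q8IDJ8). Enzyme assay of the cytosolic lysyl-tRNA synthetase in 384-well plates, read by luminescence. Compounds at 30 µM. Direction is inferred from only a few compounds that gave an IC50; most scored high, so higher reads as stronger inhibition. Of about 69,000 compounds tested this way, about 49 (0.071%) reached 50% or more in at least one test.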
CoaBC: 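Enzyme assay of CoaBC with a phosphate dye (Biomol Green) read at 650 nm. Target: Coenzyme A biosynthesis protein CoaBC, Mycobacterium tuberculosis (UniProt P9WNZ1). Compounds at 30 µM. Direction is inferred from only a few compounds that gave an IC50; most scored high, so higher reads as stronger inhibition. Most strong results did not repeat in a second test. About 67,000 compounds were tested under these conditions; 0.06% (about 40) showed 50% or more at least once.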

Each number is a percent effect as filed. The controls that fix the scale are not given in the record; negative values are as filed. The compounds are a random part of those screened. Two or more numbers in one place are separate tests of the same structure; such repeats can differ widely.

* COC(=O)c1cccn1C1CCN(C(=O)c2cn[nH]c2C)CC1 : MtTrpRS: -1.998%; ClpP1P2: 7.875%; Leishmania in macrophages: 44.94%; PfKRS1: 3.003%; CoaBC: 3.855%
* OCCNc1cc(-c2ccccc2)ncn1 : ClpP1P2: 0.9326%; Leishmania in macrophages: 6.698% and -2.88%; PfKRS1: 4.128%; CoaBC: -0.6024%
* CN(Cc1ccc(F)c(F)c1)Cc1cc2c(cc1Br)OCCO2 : MtTrpRS: -4.021%; ClpP1P2: 4.149%; Leishmania in macrophages: 17.19%; PfKRS1: 4.742%; CoaBC: -15.31%
* COc1ccc(CN2C[C@@H]3COC[C@]3(COc3cccnc3)C2)cc1 : MtTrpRS: -6.567%; ClpP1P2: -0.6072%; PfKRS1: 3.384%; CoaBC: 1.449%
* C[C@@H]1CN(c2cc(N3CCC(O)CC3)ncn2)C[C@@]1(O)C1CCC1 : MtTrpRS: -3.622%; ClpP1P2: 9.053%; Leishmania in macrophages: -40.94%; PfKRS1: 4.909%; CoaBC: 0.5115%
* CN1CCN([C@@H]2CCN(C(N)=O)[C@H]2Cc2ccccc2)CC1 : MtTrpRS: 5.853%; ClpP1P2: 2.529%; Leishmania in macrophages: 8.478%; PfKRS1: 8.225%; CoaBC: -6.667%
* CCN(C)C1COC2(CCN(C(=O)c3ccc(Cl)cc3)CC2)C1.O=C(O)C(F)(F)F (centres unmarked) : Leishmania in macrophages: 5.063%
* O=C(c1cccnc1)N1CCC2(CC1)CCN(Cc1ccccn1)C2=O : MtTrpRS: 1.424%; ClpP1P2: 3.197%; Leishmania in macrophages: 28.38%; PfKRS1: 10.91%; CoaBC: 8.705%
* CCCNCc1ccc(-c2cc(N)nc3[nH]ccc23)cc1 : MtTrpRS: 2.091%; ClpP1P2: -157.2%; Leishmania in macrophages: 1.145%; PfKRS1: 5.845%; CoaBC: 2.915%
* O=C(CCC1CCCC1)N1CCCC(c2ncc3c(n2)CCNC3)C1 (centres unmarked) : ClpP1P2: -16.88%; PfKRS1: -0.1749%; CoaBC: 5.081%
* N#Cc1ccc(C(=O)N2CCC3(CC2)CC3)cc1 : MtTrpRS: 2.18%; ClpP1P2: 9.476%; Leishmania in macrophages: 11.95%; PfKRS1: 9.703%; CoaBC: -0.6435%
* CC(C)OCCCN(CC(=O)N1CCNCC1)C(=O)c1ccc(F)cc1.O=C(O)C(F)(F)F : Leishmania in macrophages: 14.07% and -19.68%
* CCNCCOc1ccc(-c2cc(N)nc3[nH]ccc23)cc1 : MtTrpRS: -1.732%; ClpP1P2: -75.08%; Leishmania in macrophages: 15.52%; PfKRS1: 4.541%; CoaBC: 7.224%
* OCCn1nccc1C1CCN(CCOc2ccccc2F)CC1 : MtTrpRS: -0.5303%; ClpP1P2: -2.234%; Leishmania in macrophages: 4.411%; PfKRS1: 2.103%; CoaBC: 3.52%
* CCNc1cc2c(nn1)CCN(C(=O)Cc1ccc(C)s1)C2 : MtTrpRS: -3.008%; ClpP1P2: -22.56%; Leishmania in macrophages: 13.26%; PfKRS1: 0.7496%; CoaBC: 2.937%
* Cc1oc(CNC(=O)Cc2ccccc2Cl)cc1C(=O)O : MtTrpRS: -1.456%; ClpP1P2: 3.149%; Leishmania in macrophages: 10.08%; PfKRS1: 5.068%; CoaBC: 4.466%
* Cc1cc(N2CCCC3(CN(C)C(=O)O3)C2)c2cc3c(cc2n1)OCO3 (centres unmarked) : MtTrpRS: 2.101%; ClpP1P2: -9.706%; Leishmania in macrophages: -12.76%; PfKRS1: -0.4972%; CoaBC: 4.598%
* O=C(c1cccc(=O)[nH]1)N(Cc1ccsc1)CC1CCCO1 (centres unmarked) : MtTrpRS: 0.0774%; ClpP1P2: 8.74%; Leishmania in macrophages: 11.99%; PfKRS1: -3.168%; CoaBC: -2.772%
* CC(C)c1ccc(C(C)NC(=O)N2CCC(n3cncn3)CC2)cc1 (centres unmarked) : MtTrpRS: -0.7081%; ClpP1P2: -1.988%; Leishmania in macrophages: 4.953%; PfKRS1: 9.256%; CoaBC: -2.571%
* CCCC(O)CN1CCC(=O)N(CC2CC2)Cc2cc3c(cc21)OCO3 (centres unmarked) : ClpP1P2: 9.284%; Leishmania in macrophages: -16.85%; PfKRS1: 5.626%; CoaBC: -1.453%
* CC(C)c1cc(Br)ccc1NC(=O)NC(C)(CO)CO : MtTrpRS: 0.1805%; ClpP1P2: -5.693%; Leishmania in macrophages: 1.054%; PfKRS1: 5.521%; CoaBC: -0.2049%
* CCSC(C)c1nc(-c2ccc(C)nn2)no1 (centres unmarked) : MtTrpRS: 7.31%; ClpP1P2: 8.739%; Leishmania in macrophages: -6.468%; PfKRS1: -2.798%; CoaBC: 4.555%
* CN1Cc2c(C(=O)NC3CCCCC3)ncn2-c2ccccc2S1(=O)=O : MtTrpRS: -0.2945%; ClpP1P2: -2.309%; PfKRS1: -0.654%; CoaBC: 4.362%
* CC(C)N(Cc1ccc(C(=O)O)o1)C(C)C : MtTrpRS: -2.22%; ClpP1P2: -11.4%; PfKRS1: -2.633%; CoaBC: 0.8589%
* COCC(=O)N1C[C@H]2CNC[C@@]2(C(=O)NCc2cc(C)n[nH]2)C1 : MtTrpRS: -6.679%; ClpP1P2: -3.562%; PfKRS1: 3.462%; CoaBC: -7.172%
* O=C(O)CN1CCc2onc(C(c3ccccc3)c3ccccc3)c2C1 : MtTrpRS: 0.09633%; ClpP1P2: -10.46%; Leishmania in macrophages: 26.16%; PfKRS1: 3.425%; CoaBC: 10.87%
* CCCc1nc(CN(C)CCOc2ccccc2)cs1 : MtTrpRS: -1.941%; ClpP1P2: -22.84%; Leishmania in macrophages: 4.524%; PfKRS1: 5.844%; CoaBC: 2.644%
* C[C@@H]1CN(C(=O)c2cn(CCN3CCCCC3)nn2)C[C@H](C)O1 : MtTrpRS: 0.8189%; ClpP1P2: -9.424%; Leishmania in macrophages: 15.5%; PfKRS1: 5.455%; CoaBC: -2.008%
* O=c1cc2c(nn1CN1CCN(c3cccc(Cl)c3)CC1)CCC2 : MtTrpRS: 0.000009%; ClpP1P2: 2.619%; Leishmania in macrophages: 8.273%; PfKRS1: 4.49%; CoaBC: 2.826%

Some entries from above, unchanged:

structure	MtTrpRS	ClpP1P2	Leishmania in macrophages	PfKRS1	CoaBC
CC(C)c1ccc(C(C)NC(=O)N2CCC(n3cncn3)CC2)cc1 (centres unmarked)	-0.7081	-1.988	4.953	9.256	-2.571
OCCn1nccc1C1CCN(CCOc2ccccc2F)CC1	-0.5303	-2.234	4.411	2.103	3.52
Cc1cc(N2CCCC3(CN(C)C(=O)O3)C2)c2cc3c(cc2n1)OCO3 (centres unmarked)	2.101	-9.706	-12.76	-0.4972	4.598
O=C(O)CN1CCc2onc(C(c3ccccc3)c3ccccc3)c2C1	0.09633	-10.46	26.16	3.425	10.87

The values are deposited in ChEMBL (CHEMBL3988442, “University of Dundee, Small-Polar-MMV Screening Library” (2021)).